Reference: PubChem BioAssay AID1224828 (NIAID, 2016)
This is an unselected part of about 17,000 reagents tested. Over the whole deposit, 762 (4.5%) are marked active. 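Active calls include both raised and lowered p65 entry, mostly lowered; wells with fewer than 50 cells lack a z-score.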 Raw values vary from plate to plate and are shown uncorrected.

Test: 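Find genes required for NF-kappaB p65 moving into the nucleus after LPS in mouse macrophages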 (primary screen)
Cells: mouse RAW264.7 G9 macrophage reporter cells (GFP-p65, Tnf promoter-mCherry)
Reagent: siRNA pool against mouse genes, 100 nM
Time to read-out: 2 days siRNA transfection, then 40 min LPS before fixation
Challenge: LPS (Salmonella minnesota R595) at 10 ng/ml
Measurement: 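Microscopy ratio of nuclear to perinuclear-ring GFP-p65 signal, scaled to the plate median; gene score is the average of two replicate robust z-scores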
Direction: p65 translocation robust z-score: higher = more nuclear NF-kappaB p65 after LPS than the plate median; nuclear/cytoplasmic p65 ratio: higher = more nuclear NF-kappaB p65
Call rule: 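Active if robust z is above 3.3 (negative regulators) or below -1.56, the Tlr4 control median (positive regulators); activity score 50 or more; control wells not called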
Calls: active = hit (p65 shift raised or lowered); inactive = no clear change

Dmd: p65 translocation robust z-score = 0.9; nuclear/cytoplasmic p65 ratio, rep 1 = 1.73; nuclear/cytoplasmic p65 ratio, rep 2 = 1.38; low cell count flag = enough cells to score; call = inactive
Sim1: p65 translocation robust z-score = 0.16; nuclear/cytoplasmic p65 ratio, rep 1 = 1.56; nuclear/cytoplasmic p65 ratio, rep 2 = 1.59; low cell count flag = enough cells to score; call = inactive
Ctso: p65 translocation robust z-score = 0.14; nuclear/cytoplasmic p65 ratio, rep 1 = 1.54; nuclear/cytoplasmic p65 ratio, rep 2 = 1.36; low cell count flag = enough cells to score; call = inactive
Hspa4l: p65 translocation robust z-score = 0.31; nuclear/cytoplasmic p65 ratio, rep 1 = 1.47; nuclear/cytoplasmic p65 ratio, rep 2 = 1.47; low cell count flag = enough cells to score; call = inactive
Pde1c: p65 translocation robust z-score = -0.58; nuclear/cytoplasmic p65 ratio, rep 1 = 1.33; nuclear/cytoplasmic p65 ratio, rep 2 = 1.38; low cell count flag = enough cells to score; call = inactive
Gorab: p65 translocation robust z-score = 0.39; nuclear/cytoplasmic p65 ratio, rep 1 = 1.67; nuclear/cytoplasmic p65 ratio, rep 2 = 1.74; low cell count flag = enough cells to score; call = inactive
Arf4: p65 translocation robust z-score = 0.76; nuclear/cytoplasmic p65 ratio, rep 1 = 1.45; nuclear/cytoplasmic p65 ratio, rep 2 = 2; low cell count flag = enough cells to score; call = inactive
Pim3: p65 translocation robust z-score = 0.09; nuclear/cytoplasmic p65 ratio, rep 1 = 1.51; nuclear/cytoplasmic p65 ratio, rep 2 = 1.39; low cell count flag = enough cells to score; call = inactive
Phf13: nuclear/cytoplasmic p65 ratio, rep 1 = 1.4; nuclear/cytoplasmic p65 ratio, rep 2 = 1.85; low cell count flag = fewer than 50 cells per well; well left out of scoring; call = inactive
Zfp35: p65 translocation robust z-score = 1.36; nuclear/cytoplasmic p65 ratio, rep 1 = 1.52; nuclear/cytoplasmic p65 ratio, rep 2 = 1.47; low cell count flag = enough cells to score; call = inactive
Nrf1: p65 translocation robust z-score = -0.5; nuclear/cytoplasmic p65 ratio, rep 1 = 1.36; nuclear/cytoplasmic p65 ratio, rep 2 = 1.37; low cell count flag = enough cells to score; call = inactive
Strap: p65 translocation robust z-score = 2.05; nuclear/cytoplasmic p65 ratio, rep 1 = 1.81; nuclear/cytoplasmic p65 ratio, rep 2 = 1.36; low cell count flag = enough cells to score; call = inactive
Dbndd2: p65 translocation robust z-score = 0.94; nuclear/cytoplasmic p65 ratio, rep 1 = 1.65; nuclear/cytoplasmic p65 ratio, rep 2 = 1.74; low cell count flag = enough cells to score; call = inactive

2 entries from above, ordered by “p65 translocation robust z-score”, lowest first:
Sim1: p65 translocation robust z-score = 0.16; nuclear/cytoplasmic p65 ratio, rep 1 = 1.56; nuclear/cytoplasmic p65 ratio, rep 2 = 1.59; low cell count flag = enough cells to score; call = inactive
Dmd: p65 translocation robust z-score = 0.9; nuclear/cytoplasmic p65 ratio, rep 1 = 1.73; nuclear/cytoplasmic p65 ratio, rep 2 = 1.38; low cell count flag = enough cells to score; call = inactive

Next records:
Ntn4: p65 translocation robust z-score = 0.9; nuclear/cytoplasmic p65 ratio, rep 1 = 1.59; nuclear/cytoplasmic p65 ratio, rep 2 = 1.51; low cell count flag = enough cells to score; call = inactive
Ccdc187: nuclear/cytoplasmic p65 ratio, rep 1 = 1.36; nuclear/cytoplasmic p65 ratio, rep 2 = 1.12; low cell count flag = fewer than 50 cells per well; well left out of scoring; call = inactive
Ift27: p65 translocation robust z-score = 0.96; nuclear/cytoplasmic p65 ratio, rep 1 = 1.64; nuclear/cytoplasmic p65 ratio, rep 2 = 1.66; low cell count flag = enough cells to score; call = inactive
Utp6: p65 translocation robust z-score = -0.6; nuclear/cytoplasmic p65 ratio, rep 1 = 1.2; nuclear/cytoplasmic p65 ratio, rep 2 = 1.19; low cell count flag = enough cells to score; call = inactive
Miox: p65 translocation robust z-score = 0.83; nuclear/cytoplasmic p65 ratio, rep 1 = 1.81; nuclear/cytoplasmic p65 ratio, rep 2 = 1.68; low cell count flag = enough cells to score; call = inactive
Ackr2: nuclear/cytoplasmic p65 ratio, rep 1 = 1.57; nuclear/cytoplasmic p65 ratio, rep 2 = 1.65; low cell count flag = fewer than 50 cells per well; well left out of scoring; call = inactive
Tns2: p65 translocation robust z-score = 0.2; nuclear/cytoplasmic p65 ratio, rep 1 = 1.61; nuclear/cytoplasmic p65 ratio, rep 2 = 1.48; low cell count flag = enough cells to score; call = inactive
Habp4: p65 translocation robust z-score = -0.47; nuclear/cytoplasmic p65 ratio, rep 1 = 1.75; nuclear/cytoplasmic p65 ratio, rep 2 = 1.32; low cell count flag = enough cells to score; call = inactive
Nudt3: p65 translocation robust z-score = 1.93; nuclear/cytoplasmic p65 ratio, rep 1 = 1.99; nuclear/cytoplasmic p65 ratio, rep 2 = 1.83; low cell count flag = enough cells to score; call = inactive
Chst2: p65 translocation robust z-score = -0.39; nuclear/cytoplasmic p65 ratio, rep 1 = 1.58; nuclear/cytoplasmic p65 ratio, rep 2 = 1.67; low cell count flag = enough cells to score; call = inactive
Frey1: p65 translocation robust z-score = -0.4; nuclear/cytoplasmic p65 ratio, rep 1 = 1.31; nuclear/cytoplasmic p65 ratio, rep 2 = 1.39; low cell count flag = enough cells to score; call = inactive
Opn3: p65 translocation robust z-score = 0.8; nuclear/cytoplasmic p65 ratio, rep 1 = 1.55; nuclear/cytoplasmic p65 ratio, rep 2 = 1.78; low cell count flag = enough cells to score; call = inactive
Pak2: p65 translocation robust z-score = 1.93; nuclear/cytoplasmic p65 ratio, rep 1 = 1.53; nuclear/cytoplasmic p65 ratio, rep 2 = 1.62; low cell count flag = enough cells to score; call = inactive
Atp5f1c: p65 translocation robust z-score = 0.57; nuclear/cytoplasmic p65 ratio, rep 1 = 1.7; nuclear/cytoplasmic p65 ratio, rep 2 = 1.7; low cell count flag = enough cells to score; call = inactive
